Laboratory results from patent US20250242041A1 (Seagen, published 2025).
No constants are given. Whether binding was seen depends on the method and setting. Some binding calls cover weakened binding; strength is not graded here.

B1: murine monoclonal antibody 2A2 (antibody, V domains shown)
VH: EFQLQQSGPELVKPGASVKISCKASGYSFTDYNVNWVKQSNGKSLEWIGVINPKYGTTRYNQKFKGKATLTVDKPSSTAYMQLNSLTSEDSAVYYCTRGLNAWDYWGQGASVTVSS
VL: DIQMTQSPASLSASVGETVTITCGASENIYGALNWYQRKQGKSPQLLIYGATNLADGMSSRFSGSGSGRQYSFKISSLHPDDVATYYCQNVLTTPYTFGGGTKLEIK
notes: Mouse hybridoma IgG; also called m2A2; mouse 2A2
B2: h2A2 HCLG humanized antibody (antibody, human IgG1, kappa, V domains shown)
VH: QFQLVQSGAEVKKPGASVKVSCKASGYSFTDYNVNWVRQAPGQGLEWIGVINPKYGTTRYNQKFKGRATLTVDKSTSTAYMELSSLRSEDTAVYYCTRGLNAWDYWGQGTLVTVSS
VL: DIQMTQSPSSLSASVGDRVTITCGASENIYGALNWYQQKPGKAPKLLIYGATNLEDGVPSRFSGSGSGRDYTFTISSLQPEDIATYYCQNVLTTPYTFGQGTKLEIKR
notes: Labelled with AlexaFluor-647 in the saturation assay; also called humanized 2A2 HCLG

Key:
[1] = biological target: T1, cyno αvβ6 on 293F:cynoβ6 cells (human;Macaca fascicularis, UniProt P06756 31-1048; A0A2K5TZ36 22-787); test: saturation binding by flow cytometry on 293F:cynoβ6 cells
T1 chain 1: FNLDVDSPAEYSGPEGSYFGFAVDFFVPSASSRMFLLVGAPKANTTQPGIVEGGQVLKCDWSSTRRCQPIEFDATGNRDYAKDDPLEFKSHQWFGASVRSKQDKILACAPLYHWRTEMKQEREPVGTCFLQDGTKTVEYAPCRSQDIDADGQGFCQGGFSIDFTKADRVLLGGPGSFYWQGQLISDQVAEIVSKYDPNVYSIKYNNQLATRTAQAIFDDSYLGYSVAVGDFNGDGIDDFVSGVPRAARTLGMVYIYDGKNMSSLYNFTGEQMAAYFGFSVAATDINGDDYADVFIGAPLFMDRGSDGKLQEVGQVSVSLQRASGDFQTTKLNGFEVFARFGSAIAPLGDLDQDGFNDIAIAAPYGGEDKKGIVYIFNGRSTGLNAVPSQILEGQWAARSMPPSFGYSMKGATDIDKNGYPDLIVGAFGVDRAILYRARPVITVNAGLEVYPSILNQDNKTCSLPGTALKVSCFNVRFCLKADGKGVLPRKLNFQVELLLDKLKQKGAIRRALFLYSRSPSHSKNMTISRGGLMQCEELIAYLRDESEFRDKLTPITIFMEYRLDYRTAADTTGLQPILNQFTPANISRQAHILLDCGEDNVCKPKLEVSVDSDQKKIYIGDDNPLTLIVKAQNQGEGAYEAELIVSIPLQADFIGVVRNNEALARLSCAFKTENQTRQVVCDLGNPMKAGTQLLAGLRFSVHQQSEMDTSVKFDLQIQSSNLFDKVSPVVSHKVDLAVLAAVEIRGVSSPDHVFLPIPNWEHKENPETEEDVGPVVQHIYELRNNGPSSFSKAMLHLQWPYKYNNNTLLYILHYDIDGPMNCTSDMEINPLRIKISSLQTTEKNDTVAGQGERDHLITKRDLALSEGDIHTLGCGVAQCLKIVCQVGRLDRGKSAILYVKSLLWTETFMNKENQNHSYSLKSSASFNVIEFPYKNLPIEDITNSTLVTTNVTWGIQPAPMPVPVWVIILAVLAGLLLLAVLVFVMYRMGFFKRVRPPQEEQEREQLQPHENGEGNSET
T1 chain 2: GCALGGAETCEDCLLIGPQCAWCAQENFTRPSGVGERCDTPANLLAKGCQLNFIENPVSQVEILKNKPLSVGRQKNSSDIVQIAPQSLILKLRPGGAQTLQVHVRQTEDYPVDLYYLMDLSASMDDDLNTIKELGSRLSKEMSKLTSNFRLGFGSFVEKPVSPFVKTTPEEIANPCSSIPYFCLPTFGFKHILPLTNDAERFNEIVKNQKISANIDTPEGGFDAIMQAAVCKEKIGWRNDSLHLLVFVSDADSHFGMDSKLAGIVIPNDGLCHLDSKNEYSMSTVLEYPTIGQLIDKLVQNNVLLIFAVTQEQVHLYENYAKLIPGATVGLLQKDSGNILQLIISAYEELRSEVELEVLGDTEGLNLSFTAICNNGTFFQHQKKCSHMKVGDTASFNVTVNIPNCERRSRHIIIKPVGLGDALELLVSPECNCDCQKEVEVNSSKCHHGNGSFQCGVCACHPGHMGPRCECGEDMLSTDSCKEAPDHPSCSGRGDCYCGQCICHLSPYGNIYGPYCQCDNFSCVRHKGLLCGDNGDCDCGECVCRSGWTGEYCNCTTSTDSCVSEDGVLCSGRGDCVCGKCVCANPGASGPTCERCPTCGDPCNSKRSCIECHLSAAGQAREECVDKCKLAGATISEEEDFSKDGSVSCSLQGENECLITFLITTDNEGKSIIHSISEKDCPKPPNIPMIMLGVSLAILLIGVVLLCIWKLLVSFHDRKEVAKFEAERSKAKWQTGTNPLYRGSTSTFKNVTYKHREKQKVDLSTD

[2] = biological target: T1, cyno αvβ6 on 293F:cynoβ6 cells; test: binding of the hybridoma panel to transfected 293F cells
[3] = biological target: T1, cyno αvβ6 on 293F:cynoβ6 cells; test: saturation binding by flow cytometry on 293F:cynoβ6 cells; also confirmed by competition binding

| Binder | binding [1] | binding [2] | binding [3] |
| --- | --- | --- | --- |
| B1 | binds | binds | – |
| B2 | – | – | binds |
